# According to article doi:10.1101/2023.10.24.563888:
# Chains of the proteins cited; added tags and fusions are not shown.
# UniProt P02538: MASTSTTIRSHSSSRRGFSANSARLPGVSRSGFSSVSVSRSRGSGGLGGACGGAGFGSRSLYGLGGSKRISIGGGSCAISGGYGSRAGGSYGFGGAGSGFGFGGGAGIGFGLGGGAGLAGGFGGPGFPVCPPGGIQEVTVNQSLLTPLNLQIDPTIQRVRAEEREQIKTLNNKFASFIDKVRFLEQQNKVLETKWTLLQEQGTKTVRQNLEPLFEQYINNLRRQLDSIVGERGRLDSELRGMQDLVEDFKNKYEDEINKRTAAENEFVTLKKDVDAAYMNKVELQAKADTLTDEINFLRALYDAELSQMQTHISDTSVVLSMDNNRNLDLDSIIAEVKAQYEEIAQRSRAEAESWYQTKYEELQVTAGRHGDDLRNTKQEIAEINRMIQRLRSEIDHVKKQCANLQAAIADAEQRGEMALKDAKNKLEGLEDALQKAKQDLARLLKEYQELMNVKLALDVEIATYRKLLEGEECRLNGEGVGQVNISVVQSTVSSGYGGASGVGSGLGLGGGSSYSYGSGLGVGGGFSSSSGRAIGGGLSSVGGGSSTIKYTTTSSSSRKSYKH
# UniProt Q8IUD2: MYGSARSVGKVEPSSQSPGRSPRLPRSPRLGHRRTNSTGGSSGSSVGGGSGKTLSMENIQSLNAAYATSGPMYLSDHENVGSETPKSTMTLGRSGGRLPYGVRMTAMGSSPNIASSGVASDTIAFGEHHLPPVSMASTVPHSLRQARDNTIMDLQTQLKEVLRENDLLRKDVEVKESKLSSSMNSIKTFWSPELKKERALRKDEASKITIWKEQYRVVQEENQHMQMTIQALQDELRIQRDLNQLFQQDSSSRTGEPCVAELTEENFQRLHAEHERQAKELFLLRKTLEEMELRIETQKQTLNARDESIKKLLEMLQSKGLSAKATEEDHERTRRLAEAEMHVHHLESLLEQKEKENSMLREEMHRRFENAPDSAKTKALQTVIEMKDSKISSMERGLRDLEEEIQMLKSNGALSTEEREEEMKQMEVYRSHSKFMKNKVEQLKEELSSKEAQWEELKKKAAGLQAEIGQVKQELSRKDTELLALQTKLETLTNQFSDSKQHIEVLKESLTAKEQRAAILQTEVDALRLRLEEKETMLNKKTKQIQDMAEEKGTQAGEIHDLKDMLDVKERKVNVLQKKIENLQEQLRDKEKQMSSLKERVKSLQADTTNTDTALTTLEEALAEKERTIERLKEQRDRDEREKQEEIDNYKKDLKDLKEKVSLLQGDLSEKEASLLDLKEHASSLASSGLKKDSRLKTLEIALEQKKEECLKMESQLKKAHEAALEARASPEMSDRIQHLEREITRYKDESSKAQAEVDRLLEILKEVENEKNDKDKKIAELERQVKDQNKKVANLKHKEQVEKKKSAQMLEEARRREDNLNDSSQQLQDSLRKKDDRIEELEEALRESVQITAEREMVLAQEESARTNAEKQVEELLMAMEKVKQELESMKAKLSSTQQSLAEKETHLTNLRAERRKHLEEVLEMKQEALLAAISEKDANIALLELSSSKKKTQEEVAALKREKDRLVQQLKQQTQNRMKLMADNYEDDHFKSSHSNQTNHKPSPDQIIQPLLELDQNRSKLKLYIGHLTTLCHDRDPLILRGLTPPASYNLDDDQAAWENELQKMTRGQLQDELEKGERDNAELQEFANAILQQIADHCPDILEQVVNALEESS
# UniProt P08779: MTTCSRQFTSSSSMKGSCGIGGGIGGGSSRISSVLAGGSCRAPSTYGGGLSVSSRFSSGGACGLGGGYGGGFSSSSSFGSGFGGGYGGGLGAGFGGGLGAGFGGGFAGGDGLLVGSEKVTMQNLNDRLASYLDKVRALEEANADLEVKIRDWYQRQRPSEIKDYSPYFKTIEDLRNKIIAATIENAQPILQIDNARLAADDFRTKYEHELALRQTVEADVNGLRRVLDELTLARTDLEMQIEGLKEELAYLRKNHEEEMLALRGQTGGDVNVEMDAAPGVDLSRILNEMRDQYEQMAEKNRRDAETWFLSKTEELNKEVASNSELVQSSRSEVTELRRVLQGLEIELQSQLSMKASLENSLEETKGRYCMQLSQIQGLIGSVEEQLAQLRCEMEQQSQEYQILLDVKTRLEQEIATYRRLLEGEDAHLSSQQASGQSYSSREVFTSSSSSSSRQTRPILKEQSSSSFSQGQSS
# UniProt Q9UNE7: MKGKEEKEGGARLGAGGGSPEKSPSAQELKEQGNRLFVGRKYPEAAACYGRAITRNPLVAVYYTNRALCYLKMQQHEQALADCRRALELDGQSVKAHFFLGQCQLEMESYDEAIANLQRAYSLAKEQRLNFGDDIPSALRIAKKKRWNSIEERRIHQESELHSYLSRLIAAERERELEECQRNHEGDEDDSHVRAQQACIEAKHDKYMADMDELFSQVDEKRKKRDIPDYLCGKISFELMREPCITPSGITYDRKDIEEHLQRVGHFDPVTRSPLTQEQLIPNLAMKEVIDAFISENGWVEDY
# B1: tripartite motif-containing protein 29 (TRIM29) (enzyme, UniProt Q14134 1-588)
# chain: MEAADASRSNGSSPEARDARSPSGPSGSLENGTKADGKDAKTTNGHGGEAAEGKSLGSALKPGEGRSALFAGNEWRRPIIQFVESGDDKNSNYFSMDSMEGKRSPYAGLQLGAAKKPPVTFAEKGELRKSIFSESRKPTVSIMEPGETRRNSYPRADTGLFSRSKSGSEEVLCDSCIGNKQKAVKSCLVCQASFCELHLKPHLEGAAFRDHQLLEPIRDFEARKCPVHGKTMELFCQTDQTCICYLCMFQEHKNHSTVTVEEAKAEKETELSLQKEQLQLKIIEIEDEAEKWQKEKDRIKSFTTNEKAILEQNFRDLVRDLEKQKEEVRAALEQREQDAVDQVKVIMDALDERAKVLHEDKQTREQLHSISDSVLFLQEFGALMSNYSLPPPLPTYHVLLEGEGLGQSLGNFKDDLLNVCMRHVEKMCKADLSRNFIERNHMENGGDHRYVNNYTNSFGGEWSAPDTMKRYSMYLTPKGGVRTSYQPSSPGRFTKETTQKNFNNLYGTKGNYTSRVWEYSSSIQNSDNDLPVVQGSSSFSLKGYPSLMRSQSPKAQPQTWKSGKQTMLSHYRPFYVNKGNGIGSNEAP
# B2: RelA-associated inhibitor (protein, UniProt Q8WUF5 1-828)
# chain: MDSEAFQSARDFLDMNFQSLAMKHMDLKQMELDTAAAKVDELTKQLESLWSDSPAPPGPQAGPPSRPPRYSSSSIPEPFGSRGSPRKAATDGADTPFGRSESAPTLHPYSPLSPKGRPSSPRTPLYLQPDAYGSLDRATSPRPRAFDGAGSSLGRAPSPRPGPGPLRQQGPPTPFDFLGRAGSPRGSPLAEGPQAFFPERGPSPRPPATAYDAPASAFGSSLLGSGGSAFAPPLRAQDDLTLRRRPPKAWNESDLDVAYEKKPSQTASYERLDVFARPASPSLQLLPWRESSLDGLGGTGKDNLTSATLPRNYKVSPLASDRRSDAGSYRRSLGSAGPSGTLPRSWQPVSRIPMPPSSPQPRGAPRQRPIPLSMIFKLQNAFWEHGASRAMLPGSPLFTRAPPPKLQPQPQPQPQPQSQPQPQLPPQPQTQPQTPTPAPQHPQQTWPPVNEGPPKPPTELEPEPEIEGLLTPVLEAGDVDEGPVARPLSPTRLQPALPPEAQSVPELEEVARVLAEIPRPLKRRGSMEQAPAVALPPTHKKQYQQIISRLFHRHGGPGPGGPEPELSPITEGSEARAGPPAPAPPAPIPPPAPSQSSPPEQPQSMEMRSVLRKAGSPRKARRARLNPLVLLLDAALTGELEVVQQAVKEMNDPSQPNEEGITALHNAICGANYSIVDFLITAGANVNSPDSHGWTPLHCAASCNDTVICMALVQHGAAIFATTLSDGATAFEKCDPYREGYADCATYLADVEQSMGLMNSGAVYALWDYSAEFGDELSFREGESVTVLRRDGPEETDWWWAALHGQEGYVPRNYFGLFPRVKPQRSKV
# Molecular target: keratin 6a (K6a), endogenous in hTCEpi cells (human (endogenous in hTCEpi)) (UniProt P02538)
# Experiment: affinity purification with mass spectrometry
row,binding,Molecule
1,binds,"ELKS/Rab6-interacting/CAST family member 1 (ELKS), endogenous in hTCEpi cells (from UniProt Q8IUD2 1-1116)"
2,binds,K16 (from UniProt P08779 1-473)
3,binds,carboxyl terminus of constitutive heat shock cognate 70 (HSC70)-interacting protein (CHIP) (from UniProt Q9UNE7 1-303) (enzyme)
4,binds,B1
5,binds,B2

# No constants are given. Whether binding was seen depends on the method and setting. Binding seen in cells or lysates may run through a third protein. Here binding means that the protein was enriched with, or labelled near, the bait; the list need not be complete.
